Experimental data reported in PMC5177622, “Multivalent Histone and DNA Engagement by a PHD/BRD/PWWP Triple Reader Cassette Recruits ZMYND8 to K14ac-Rich Chromatin” (Cell Reports, 2016).
The exact form of at least one protein or probe is not confirmed. For part of these data: A negative result means that nothing was seen under these conditions.

Chains of the proteins cited; added tags and fusions are not shown. Chains listed by the source or under a name are the forms on record and can include a tag or linker. Residues count along the entry.
UniProt Q9ULU4, 83-406 R96A/K233A/K239A/K243A: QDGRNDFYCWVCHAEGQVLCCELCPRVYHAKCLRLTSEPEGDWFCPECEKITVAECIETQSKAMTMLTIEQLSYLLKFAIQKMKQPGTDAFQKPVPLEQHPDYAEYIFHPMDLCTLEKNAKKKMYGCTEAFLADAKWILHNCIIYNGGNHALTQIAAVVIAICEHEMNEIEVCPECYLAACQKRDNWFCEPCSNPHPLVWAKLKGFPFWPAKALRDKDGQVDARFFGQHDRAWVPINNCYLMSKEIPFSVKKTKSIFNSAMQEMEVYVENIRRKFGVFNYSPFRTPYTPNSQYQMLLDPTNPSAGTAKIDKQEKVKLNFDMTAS
UniProt Q9ULU4, 83-406 K284A/K286A/K334A: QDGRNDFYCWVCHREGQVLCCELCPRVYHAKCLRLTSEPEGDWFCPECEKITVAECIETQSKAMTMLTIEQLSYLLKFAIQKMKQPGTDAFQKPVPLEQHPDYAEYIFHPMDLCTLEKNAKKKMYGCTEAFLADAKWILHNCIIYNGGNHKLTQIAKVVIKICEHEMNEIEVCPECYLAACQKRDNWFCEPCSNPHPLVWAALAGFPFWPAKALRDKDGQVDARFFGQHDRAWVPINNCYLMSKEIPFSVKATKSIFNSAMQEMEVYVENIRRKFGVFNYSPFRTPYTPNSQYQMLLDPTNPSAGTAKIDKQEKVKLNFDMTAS
ZMYND8 PHD/BRD/PWWP cassette WT (human), one chain, as listed by the source: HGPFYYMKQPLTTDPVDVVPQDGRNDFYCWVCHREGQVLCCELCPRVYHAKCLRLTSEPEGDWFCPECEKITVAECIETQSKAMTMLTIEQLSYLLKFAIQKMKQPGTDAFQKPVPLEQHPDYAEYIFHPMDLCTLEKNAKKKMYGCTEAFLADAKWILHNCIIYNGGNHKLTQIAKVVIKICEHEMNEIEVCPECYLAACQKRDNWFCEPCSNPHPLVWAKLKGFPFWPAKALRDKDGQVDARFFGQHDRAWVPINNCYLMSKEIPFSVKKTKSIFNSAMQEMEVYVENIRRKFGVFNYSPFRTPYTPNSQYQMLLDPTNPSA

Experiments:
Assay in all cases: EMSA
[1] = system: ZMYND8 PHD/BRD/PWWP cassette WT (human); settings: EMSA binding buffer; probes annealed in 1x React buffer 3 (Invitrogen); recombinant protein; residues 83-406; label: radioactive
[2] = target: ZMYND8 cassette PHD/BRD DNA-face mutant (RKKK/AAAA) R96A,K233A,K239A,K243A (human) (UniProt Q9ULU4); settings: EMSA binding buffer; probes annealed in 1x React buffer 3 (Invitrogen); recombinant protein; label: radioactive
[3] = target: ZMYND8 cassette PWWP DNA-face mutant (KKK/AAA) K284A,K286A,K334A (human) (UniProt Q9ULU4); settings: EMSA binding buffer; probes annealed in 1x React buffer 3 (Invitrogen); recombinant protein; label: radioactive

CATGGCGGGGCCCCGCGACGCGGCTGCCTGCGGGGTGCATG (double strand) [GC-rich probe]
binding result [1]: binds
binding result [2]: no binding
binding result [3]: no binding

CATGTTTTAATAGTATCTGCAATTTGTAATATGTCTACATG (double strand) [AT-rich probe]
binding result [1]: binds
binding result [2]: no binding
binding result [3]: no binding
